Measured values reported in PubChem BioAssay (Tox21).
“And” between values parts separate entries of the source, which are not always exact repeats. Equal values may be shown once. Only results without a clear call are listed here; the source files them as inconclusive. Unless noted, calls follow the shape of the dose curve; as a rule, active = well fitted curve in the direction sought with a large enough effect in the repeat runs; inconclusive = weak or mixed curves; inactive = no such curve, though single readings can be large; an effect the other way counts as inactive or inconclusive.

The chains behind the UniProt entries cited, without tags or fusion partners.
UniProt P04150, whole entry: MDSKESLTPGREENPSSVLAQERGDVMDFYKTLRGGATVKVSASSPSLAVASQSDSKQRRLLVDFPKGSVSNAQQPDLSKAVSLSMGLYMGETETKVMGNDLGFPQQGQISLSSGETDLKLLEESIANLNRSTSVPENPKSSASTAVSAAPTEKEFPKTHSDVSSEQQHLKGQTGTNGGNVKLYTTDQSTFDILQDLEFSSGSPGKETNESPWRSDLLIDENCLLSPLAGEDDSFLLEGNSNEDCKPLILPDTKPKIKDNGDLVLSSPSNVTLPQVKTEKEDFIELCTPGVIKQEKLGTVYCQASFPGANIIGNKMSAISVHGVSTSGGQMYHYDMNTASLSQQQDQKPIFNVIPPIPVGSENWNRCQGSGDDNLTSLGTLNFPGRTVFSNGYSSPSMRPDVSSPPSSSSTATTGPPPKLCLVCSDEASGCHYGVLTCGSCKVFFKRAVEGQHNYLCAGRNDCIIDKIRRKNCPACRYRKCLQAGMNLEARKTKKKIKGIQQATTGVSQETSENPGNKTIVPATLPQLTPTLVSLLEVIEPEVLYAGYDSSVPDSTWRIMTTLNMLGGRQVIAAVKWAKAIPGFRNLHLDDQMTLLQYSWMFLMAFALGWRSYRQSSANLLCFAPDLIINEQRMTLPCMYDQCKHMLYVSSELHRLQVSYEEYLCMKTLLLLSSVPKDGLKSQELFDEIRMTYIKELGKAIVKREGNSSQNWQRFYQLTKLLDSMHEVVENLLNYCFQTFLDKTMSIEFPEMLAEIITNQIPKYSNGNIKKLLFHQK
UniProt P11511, whole entry: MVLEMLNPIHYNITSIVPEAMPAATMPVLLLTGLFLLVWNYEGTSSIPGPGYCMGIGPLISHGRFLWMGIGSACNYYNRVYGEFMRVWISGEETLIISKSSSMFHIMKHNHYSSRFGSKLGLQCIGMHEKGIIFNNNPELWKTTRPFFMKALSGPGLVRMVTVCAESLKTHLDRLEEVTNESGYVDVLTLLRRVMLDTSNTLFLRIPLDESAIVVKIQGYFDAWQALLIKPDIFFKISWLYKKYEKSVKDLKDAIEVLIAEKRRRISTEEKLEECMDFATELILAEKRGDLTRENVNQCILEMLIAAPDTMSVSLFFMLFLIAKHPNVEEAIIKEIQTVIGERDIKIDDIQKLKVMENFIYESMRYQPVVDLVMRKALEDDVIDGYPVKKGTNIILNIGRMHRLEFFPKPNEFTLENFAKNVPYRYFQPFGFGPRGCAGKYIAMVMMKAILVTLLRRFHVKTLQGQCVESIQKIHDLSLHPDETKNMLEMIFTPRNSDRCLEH
UniProt P08659, whole entry: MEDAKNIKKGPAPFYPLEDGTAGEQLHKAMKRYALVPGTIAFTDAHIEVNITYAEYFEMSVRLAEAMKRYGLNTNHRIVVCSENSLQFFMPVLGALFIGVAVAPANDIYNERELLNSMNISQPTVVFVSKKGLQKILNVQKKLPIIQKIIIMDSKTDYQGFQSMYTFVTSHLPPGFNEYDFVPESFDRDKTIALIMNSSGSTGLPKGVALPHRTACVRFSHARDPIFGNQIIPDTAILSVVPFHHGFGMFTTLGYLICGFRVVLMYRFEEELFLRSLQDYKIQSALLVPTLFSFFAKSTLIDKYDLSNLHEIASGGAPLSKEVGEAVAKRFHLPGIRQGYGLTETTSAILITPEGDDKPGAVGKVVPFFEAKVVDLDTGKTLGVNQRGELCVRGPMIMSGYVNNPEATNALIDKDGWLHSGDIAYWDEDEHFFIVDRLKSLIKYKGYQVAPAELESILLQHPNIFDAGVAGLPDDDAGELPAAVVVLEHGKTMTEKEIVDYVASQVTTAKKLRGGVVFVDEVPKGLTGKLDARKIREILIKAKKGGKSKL
UniProt P03372, whole entry: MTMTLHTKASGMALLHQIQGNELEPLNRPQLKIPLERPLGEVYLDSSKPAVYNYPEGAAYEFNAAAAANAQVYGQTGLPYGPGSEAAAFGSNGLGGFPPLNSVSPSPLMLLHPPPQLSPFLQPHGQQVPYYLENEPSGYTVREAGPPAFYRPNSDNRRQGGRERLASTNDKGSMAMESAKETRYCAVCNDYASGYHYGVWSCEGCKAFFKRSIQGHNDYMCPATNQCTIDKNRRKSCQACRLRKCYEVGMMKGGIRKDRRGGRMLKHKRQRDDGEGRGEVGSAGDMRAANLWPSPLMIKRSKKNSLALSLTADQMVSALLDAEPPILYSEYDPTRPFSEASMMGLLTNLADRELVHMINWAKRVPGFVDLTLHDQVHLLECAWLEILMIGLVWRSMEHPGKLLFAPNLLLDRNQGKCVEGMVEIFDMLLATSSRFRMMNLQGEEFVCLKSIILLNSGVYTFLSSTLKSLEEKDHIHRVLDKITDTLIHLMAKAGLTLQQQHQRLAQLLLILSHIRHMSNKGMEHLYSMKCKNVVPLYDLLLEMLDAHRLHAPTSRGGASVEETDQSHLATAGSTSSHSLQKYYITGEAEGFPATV
UniProt P06401, whole entry: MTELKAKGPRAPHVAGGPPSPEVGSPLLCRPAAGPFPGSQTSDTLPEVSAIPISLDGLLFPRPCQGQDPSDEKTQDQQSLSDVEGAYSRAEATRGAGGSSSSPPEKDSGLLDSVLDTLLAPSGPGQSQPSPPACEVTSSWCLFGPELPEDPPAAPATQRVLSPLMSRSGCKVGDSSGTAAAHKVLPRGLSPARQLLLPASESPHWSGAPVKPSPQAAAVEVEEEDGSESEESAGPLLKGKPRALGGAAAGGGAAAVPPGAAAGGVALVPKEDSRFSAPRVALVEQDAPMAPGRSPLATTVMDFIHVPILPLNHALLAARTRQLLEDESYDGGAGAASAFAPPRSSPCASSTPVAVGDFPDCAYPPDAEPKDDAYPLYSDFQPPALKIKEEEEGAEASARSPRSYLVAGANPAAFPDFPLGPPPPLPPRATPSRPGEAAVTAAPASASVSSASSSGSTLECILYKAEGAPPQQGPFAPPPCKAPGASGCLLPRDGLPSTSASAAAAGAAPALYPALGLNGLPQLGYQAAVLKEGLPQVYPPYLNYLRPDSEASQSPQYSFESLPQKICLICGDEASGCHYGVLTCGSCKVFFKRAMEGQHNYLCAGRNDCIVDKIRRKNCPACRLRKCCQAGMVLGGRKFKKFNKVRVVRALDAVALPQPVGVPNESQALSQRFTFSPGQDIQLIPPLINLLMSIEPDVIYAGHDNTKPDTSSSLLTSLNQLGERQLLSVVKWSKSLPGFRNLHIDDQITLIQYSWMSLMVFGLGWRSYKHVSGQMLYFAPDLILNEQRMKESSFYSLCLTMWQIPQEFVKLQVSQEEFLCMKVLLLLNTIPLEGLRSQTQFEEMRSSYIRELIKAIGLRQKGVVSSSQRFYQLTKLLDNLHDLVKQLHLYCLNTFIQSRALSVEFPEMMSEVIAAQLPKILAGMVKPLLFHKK
UniProt O75469, whole entry: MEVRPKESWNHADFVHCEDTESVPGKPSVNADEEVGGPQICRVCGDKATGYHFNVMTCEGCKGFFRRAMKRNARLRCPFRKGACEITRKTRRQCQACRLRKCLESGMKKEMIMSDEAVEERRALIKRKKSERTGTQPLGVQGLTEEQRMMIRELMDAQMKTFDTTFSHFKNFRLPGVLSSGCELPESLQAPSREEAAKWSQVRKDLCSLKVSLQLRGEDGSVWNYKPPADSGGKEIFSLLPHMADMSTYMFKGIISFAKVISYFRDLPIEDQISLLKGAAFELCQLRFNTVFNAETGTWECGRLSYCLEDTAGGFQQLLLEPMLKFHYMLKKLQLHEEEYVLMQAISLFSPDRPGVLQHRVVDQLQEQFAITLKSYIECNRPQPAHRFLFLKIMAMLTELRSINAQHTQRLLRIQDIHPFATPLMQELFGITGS
UniProt P10635, whole entry: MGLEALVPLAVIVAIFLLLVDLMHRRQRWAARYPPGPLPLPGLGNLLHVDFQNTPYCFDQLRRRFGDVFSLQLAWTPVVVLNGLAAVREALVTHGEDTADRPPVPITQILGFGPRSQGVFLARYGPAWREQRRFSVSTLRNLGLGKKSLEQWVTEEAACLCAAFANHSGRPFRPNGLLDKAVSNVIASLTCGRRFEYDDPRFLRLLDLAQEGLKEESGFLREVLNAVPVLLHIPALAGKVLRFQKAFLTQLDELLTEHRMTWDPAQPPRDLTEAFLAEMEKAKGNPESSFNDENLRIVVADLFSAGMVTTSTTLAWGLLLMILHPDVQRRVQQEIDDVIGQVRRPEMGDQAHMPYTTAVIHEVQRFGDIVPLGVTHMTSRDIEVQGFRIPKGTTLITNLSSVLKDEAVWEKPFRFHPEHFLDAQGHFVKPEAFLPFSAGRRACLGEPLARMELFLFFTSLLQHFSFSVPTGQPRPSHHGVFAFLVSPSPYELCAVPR
UniProt P33261, whole entry: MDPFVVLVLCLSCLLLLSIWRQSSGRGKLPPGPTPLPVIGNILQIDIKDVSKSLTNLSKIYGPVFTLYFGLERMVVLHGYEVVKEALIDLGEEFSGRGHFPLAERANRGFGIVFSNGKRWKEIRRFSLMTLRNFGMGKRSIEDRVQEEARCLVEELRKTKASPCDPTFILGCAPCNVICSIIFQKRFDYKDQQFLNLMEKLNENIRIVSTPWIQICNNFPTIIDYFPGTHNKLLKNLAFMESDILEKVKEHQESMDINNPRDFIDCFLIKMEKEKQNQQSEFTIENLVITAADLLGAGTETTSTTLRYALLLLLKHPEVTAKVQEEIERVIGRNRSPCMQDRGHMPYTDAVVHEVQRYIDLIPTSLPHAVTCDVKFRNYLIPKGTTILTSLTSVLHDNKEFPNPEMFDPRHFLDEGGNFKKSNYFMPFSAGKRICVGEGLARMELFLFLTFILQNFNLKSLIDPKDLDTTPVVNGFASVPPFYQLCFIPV

What was measured:
[1] = qHTS assay for small molecule disruptors of the mitochondrial membrane potential - cell viability (AID 720634; calls by dose curve; also: potency is read from the fitted curve at half-maximal effect; nearly all actives have a fitted effect of over 20% in size); settings: HepG2 viability, ATP luminescence (CellTiter-Glo), 1 h
Outline: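 HepG2, 1 hr compound, 37 C. ATP luminescence via CellTiter-Glo, 30 min RT, same well as m-MPI.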

[2] = target: Glucocorticoid receptor (Homo sapiens) (UniProt P04150); test: qHTS assay to identify small molecule antagonists of the glucocorticoid receptor (GR) signaling pathway (AID 720692; active = well fitted inhibition curve with a large enough effect in the signal ratio in the repeat runs, not every such curve was filed as active; inconclusive = weak or mixed curves, or effect the other way; inactive = no such curve, though single readings can be large or run the other way; the % refers to the signal ratio; also: % is scaled to controls: 0 for no effect and ±100 for the full control effect); settings: GR-bla HeLa, beta-lactamase FRET ratio, dexamethasone-stimulated, 18 h
[3] = qHTS assay for identifying genotoxic compounds that show differential cytotoxicity against isogenic chicken DT40 cell lines with known DNA damage response pathways - wild type cell line (AID 743012); settings: DT40 wild type chicken cells viability, CellTiter-Glo, 40 h; also: potency is read from the fitted curve at half-maximal effect; nearly all actives have a fitted effect of over 60% in size
Outline: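 First, wild type DT40 cells were plated at 300 per well and equilibrated about 0.5 h at 37 C/5% CO2. Next, compounds in DMSO were added and exposure lasted 40 h. Finally, CellTiter-Glo was added for 30 min at room temperature and luminescence recorded.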

[4] = qHTS assay for identifying genotoxic compounds that show differential cytotoxicity against isogenic chicken DT40 cell lines with known DNA damage response pathways - Rev3 mutant cell line (AID 743014); settings: chicken DT40 Rev3-/- viability, CellTiter-Glo, 40 h; also: potency is read from the fitted curve at half-maximal effect; nearly all actives have a fitted effect of over 55% in size
[5] = qHTS assay to identify small molecule antagonists of the androgen receptor (AR) signaling pathway using the MDA cell line - cell viability counter screen (AID 743041; also: potency is read from the fitted curve at half-maximal effect; nearly all actives have a fitted effect of over 45% in size); settings: MDA-kb2 viability, CellTiter-Fluor, 16 h, cells co-treated with R1881 androgen agonist; viability change, negative = cytotoxic: at 70.3 µM (top of the series)
Outline: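 Cells were plated at 3,000 per well and left 5 h. Compounds in DMSO were then pinned in, followed by R1881. After 16 h at 37C, CellTiter-Fluor fluorescence gave viability.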

[6] = qHTS assay to identify small molecule antagonists of the estrogen receptor alpha (ER-alpha) signaling pathway using the BG1 cell line (AID 743080; calls by dose curve;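 also: BG1 cells stimulated with 17beta-estradiol alongside compound; potency is read from the fitted curve at half-maximal effect; nearly all actives have a fitted effect of over 25% in size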); settings: BG1Luc4E2 ERE-luciferase antagonist mode, luminescence; activity change, negative = inhibition: at 70.3 µM (top of the series)
Outline: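 BG1-Luc-4E2 cells (endogenous full-length ER-alpha, 4xERE luciferase) hormone-starved 5 days in charcoal-stripped FBS, plated 4,000/well for 24 h, then compound plus 17beta-estradiol for 21.5 h at 37 C; ONE-Glo luminescence read.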

Aromatase (Homo sapiens) = Aromatase (Homo sapiens) (UniProt P11511); test: qHTS assay to identify aromatase inhibitors (AID 743083); settings: MCF-7 aro ERE, testosterone-driven ERE luciferase, 24 h; also: potency is read from the fitted curve at half-maximal effect; nearly all actives have a fitted effect of over 55% in size
[7] = qHTS assay to identify small molecule that activate the aryl hydrocarbon receptor (AhR) signaling pathway - cell viability counter screen (AID 743086); settings: HepG2-AhR-luc viability, CellTiter-Fluor, 24 h; also: potency is read from the fitted curve at half-maximal effect; nearly all actives have a fitted effect of over 45% in size
Outline: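 Cytotoxicity counter screen: CellTiter-Fluor signal (30 min, 37 C) in 4000 HepG2 cells/well carrying the DRE-luciferase reporter, following 24 h compound exposure at 37 C.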

[8] = qHTS assay to identify small molecule antagonists of the peroxisome proliferator-activated receptor gamma (PPARg) signaling pathway - cell viability counter screen (AID 743194); settings: PPARg-bla HEK293H viability, CellTiter-Glo luminescence, 17 h, co-treated with 50 nM rosiglitazone; activity change, negative = cytotoxicity: at 81.1 µM (top of the series); also: % is scaled to controls: 0 for no effect and ±100 for the full control effect; nearly all actives have a fitted effect of over 55% in size
Outline: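 Viability was measured as CellTiter-Glo luminescence in GeneBLAzer PPARg UAS-bla HEK293H cells. These cells had been exposed 17 h at 37 C to compounds together with rosiglitazone at 50 nM final, with the beta-lactamase readout taken in the same wells.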

[9] = qHTS assay for small molecule agonists of the antioxidant response element (ARE) signaling pathway - cell viability counter screen (AID 743203; calls by dose curve; also: potency is read from the fitted curve at half-maximal effect; nearly all actives have a fitted effect of over 55% in size); settings: ARE-bla HepG2 viability, CellTiter-Glo luminescence, 16 h; viability change, negative = cytotoxic: at 73.3 µM (top of the series)
Outline: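 Following 16 hrs of compound treatment at 37C, HepG2 cells with an ARE-controlled beta-lactamase gene were lysed with CellTiter-Glo. Luminescence was read after 30 min at room temperature.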

[10] = qHTS assay to identify small molecule antagonists of the retinoid acid receptor (RAR) signaling pathway - cell viability counter screen (AID 1159551); settings: C3RL4 cells viability, ATP luminescence (CellTiter-Glo), 6 h; also: potency is read from the fitted curve at half-maximal effect; nearly all actives have a fitted effect of over 35% in size
Outline: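 Retinol-stimulated (1 uM final) C3RL4 cells, compound 6 h, 37 C; readout CellTiter-Glo luminescence (ATP) after 30 min RT incubation.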

[11] = qHTS assay to identify small molecule antagonists of the estrogen related receptor (ERR) signaling pathway from Tox21 library - cell viability counter screen (AID 1224834); settings: ERR reporter cells viability, CellTiter-Fluor, 17.5 h; also: potency is read from the fitted curve at half-maximal effect; nearly all actives have a fitted effect of over 30% in size
Outline: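 After 17.5 h of compound exposure at 37 C, ERR cells are incubated with CellTiter-Fluor for 30 min and fluorescence intensity serves as the viability measure.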

[12] = target: Luciferin 4-monooxygenase (Photinus pyralis) (UniProt P08659); test: qHTS assay to identify small molecule inhibitors of firefly luciferase (AID 1224835); also: potency is read from the fitted curve at half-maximal effect; nearly all actives have a fitted effect of over 25% in size; settings: purified P. pyralis luciferase, luminescence inhibition
Outline: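 Inhibition of purified Photinus luciferase is measured by luminescence. Substrate levels (D-luciferin, ATP) sit at their KM values. Each compound is tested in a concentration series.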

[13] = qHTS assay to identify small molecule agonists of the constitutive androstane receptor (CAR) signaling pathway - cell viability counter screen (AID 1224836); settings: HepG2-CYP2B6-hCAR viability, CellTiter-Fluor, 23 h; PK11195 added to every well; also: potency is read from the fitted curve at half-maximal effect; nearly all actives have a fitted effect of over 45% in size
Outline: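 Double-stable HepG2 hepatoma cells (hCAR plus CYP2B6-2.2kb) are treated for 23 h at 37 C with test compounds in 15-point concentration series. PK11195 at 0.75 uM final is co-added. Cell viability is quantified by CellTiter-Fluor.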

[14] = qHTS assay to identify small molecule antagonists of the constitutive androstane receptor (CAR) signaling pathway - cell viability counter screen (AID 1224837); settings: HepG2-CYP2B6-hCAR viability, CellTiter-Fluor, 23 h; co-treated with 50 nM CITCO; also: potency is read from the fitted curve at half-maximal effect; nearly all actives have a fitted effect of over 45% in size
Outline: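 Counter screen run in HepG2-CYP2B6-hCAR cells: 4 hr settle, compound titration (15 concentrations) with 50 nM CITCO, 23 hr at 37 C/5% CO2, CellTiter-Fluor fluorescence.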

[15] = qHTS assay to identify small molecule agonists of H2AX (AID 1224845; active = well fitted activation curve with a large enough effect in the signal ratio in the repeat runs, not every such curve was filed as active; inconclusive = weak or mixed curves; the % refers to the signal ratio; also: potency is read from the fitted curve at half-maximal effect); settings: CHO-K1 phospho-H2AX Ser139 HTRF, 3 h; activation (H2AX phosphorylation): at 154 µM (top of the series)
Outline: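 Phospho-H2AX Ser139 measured by HTRF (ex 320 nm; em 665 and 620 nm) after 24 hr antibody incubation. Compounds, 15 concentrations, 0.76% DMSO, were applied to CHO-K1 cells for 3hr at 37C before lysis.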

[16] = qHTS assay to identify small molecule agonists of H2AX - cell viability counter screen (AID 1224847; calls by dose curve; also: potency is read from the fitted curve at half-maximal effect; nearly all actives have a fitted effect of over 30% in size); settings: CHO-K1 viability, CellTiter-Glo luminescence, 3 h
Outline: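 For this counter screen, overnight-attached CHO-K1 cells received test compounds (15 concentrations, 0.76% DMSO final); 3 hr later at 37C, CellTiter-Glo reagent was added and luminescence recorded after 30 min at room temperature.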

[17] = qHTS assay to identify small molecule antagonists of the estrogen related receptor (ERR) signaling pathway from Tox21 library (AID 1224848); settings: ERR reporter cell line, luciferase antagonist mode, 18 h; also: potency is read from the fitted curve at half-maximal effect; nearly all actives have a fitted effect of over 50% in size
Outline: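 Antagonist-mode screen of the Tox21 10K library in an NTP-provided ERR reporter cell line; 18 h compound exposure at 37 C, luminescence measured with ONE-Glo.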

[18] = qHTS RealTime-Glo MT Cell Viability Assay in HEK293 cells - 32 hour (AID 1224868); settings: RealTime-Glo luminescence; also: potency is read from the fitted curve at half-maximal effect; nearly all actives have a fitted effect of over 50% in size
Outline: (§1)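 HEK293 cells seeded with NanoLuc/prosubstrate reagent, rested 5 h at 37 C, then dosed and kept at 37 C up to 40 h. Nonlytic real-time luminescence from viable cells read at 0, 8, 16, 24, 32 and 40 h.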

[19] = qHTS RealTime-Glo MT Cell Viability Assay in HEK293 cells - 24 hour (AID 1224886); settings: RealTime-Glo luminescence; also: potency is read from the fitted curve at half-maximal effect; nearly all actives have a fitted effect of over 50% in size
Outline: as §1

[20] = target: Estrogen receptor (Homo sapiens) (UniProt P03372); test: qHTS assay to identify small molecule antagonists of the estrogen receptor alpha (ER-alpha) signaling pathway using the BG1 cell line in the presence of 0.1 nM 17-beta-estradiol (AID 1259244); settings: VM7Luc4E2 (BG1) ERE-luciferase, antagonist mode, 0.1 nM E2, 22 h; also: potency is read from the fitted curve at half-maximal effect; nearly all actives have a fitted effect of over 50% in size
[21] = qHTS assay to identify small molecule antagonists of the estrogen receptor beta (ER-beta) signaling pathway - cell viability counter screen (AID 1259382); settings: ER-beta-UAS-bla HEK293T viability, CellTiter-Glo luminescence, 16 h
Outline: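 In this multiplexed counter screen, cells were seeded at 2,000 per well in medium with 2% charcoal-stripped FBS and incubated 6 hr before compound and 1nM final E2 were added. Sixteen hours later, ATP-based luminescence reported viability.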

[22] = qHTS assay to identify small molecule agonists of the estrogen receptor alpha (ER-alpha) signaling pathway in the presence of an antagonist - cell viability counter screen (AID 1259386); settings: VM7Luc4E2 viability, CellTiter-Fluor fluorescence, 22 h;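 also: potency is read from the fitted curve at half-maximal effect; cells exposed to compounds for 22 h at 37 °C before the viability read; nearly all actives have a fitted effect of over 30% in size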
Outline: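 Viability counter screen using VM7Luc4E2 (full-length ER-alpha, four ERE-luciferase). The cells were treated with compounds alongside ICI-182,780 10.0nM for 22hr, and live-cell protease fluorescence was quantified with CellTiter-Fluor.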

[23] = target: Progesterone receptor (Homo sapiens) (UniProt P06401); test: qHTS assay to identify small molecule agonists of the progesterone receptor (PR) signaling pathway (AID 1346784; calls by dose curve; also: nearly all actives have a fitted effect of over 30% in size; also: potency is read from the fitted curve at half-maximal effect; as to activation: % is scaled to controls: 0 for no effect and ±100 for the full control effect); settings: PR-UAS-bla HEK293T, beta-lactamase FRET ratio, 16 h; activation: at 92.4 µM (top of the series)
Outline: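 Fluorescence from LiveBLAzer B/G FRET substrate cleavage (2 hr, RT) reported PR activation in PR-UAS-bla HEK 293T cells treated 16 hr at 37C/5% CO2 with compounds; medium contained 2% charcoal-stripped FBS.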

[24] = Human pregnane X receptor (PXR) small molecule agonists, qHTS cell viability counter screen (AID 1346977); settings: PXR-Luc HepG2 viability, CellTiter-Fluor, 24 h
Outline: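 Viability counter screen: CellTiter-Fluor signal in PXR-Luc HepG2 cells, 24hr compound exposure, 37C, 5% CO2.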

[25] = Caspase-3/7 induction in CHO-K1 cells by small molecules, qHTS assay (AID 1346980); settings: CHO-K1 caspase-3/7 induction, Caspase-Glo luminescence, 17 h; also: potency is read from the fitted curve at half-maximal effect; nearly all actives have a fitted effect of over 15% in size
Outline: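 Luminescent Caspase-Glo 3/7 read (30min, room temperature) quantified apoptosis induction. Cells were wild-type CHO-K1, treated with compound for 17hr at 37 C and 5% CO2.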

[26] = Caspase-3/7 induction in HepG2 cells by small molecules, qHTS cell viability counter screen (AID 1346981); settings: CellTiter-Fluor fluorescence, 17 h
Outline: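 Viability determined by CellTiter-Fluor fluorescence in HepG2 wells also used for the luminescent Caspase-Glo 3/7 read. Compounds were present for 16 hr at 37 C, 5% CO2 before reagent addition.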

[27] = target: Nuclear receptor subfamily 1 group I member 2 (Homo sapiens) (UniProt O75469); test: Human pregnane X receptor (PXR) small molecule agonists, qHTS assay (AID 1346982); settings: PXR-Luc HepG2, CYP3A4 luciferase reporter, 24 h; also: potency is read from the fitted curve at half-maximal effect; nearly all actives have a fitted effect of over 35% in size
Outline: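 Compound-induced hPXR transactivation of a CYP3A4 luciferase reporter was scored in HepG2 PXR-Luc cells over 24 hr at 37 C, 5% CO2, by luminescence.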

[28] = target: Cytochrome P450 2D6 (Homo sapiens) (UniProt P10635); test: Cytochrome P450 Family 2 Subfamily D Member 6 (CYP2D6) small molecule antagonists: luciferase reporter qHTS assay (AID 1671196); settings: P450-Glo CYP2D6 enzyme assay, luciferin luminescence, 1 h
Outline: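 Each well received CYP2D6 with its proluciferin substrate and chemical, sat 10 min, then got NADPH regeneration solution for 1 h at room temperature. Luminescence in RLU served as the activity measure.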

[29] = target: Cytochrome P450 2C19 (Homo sapiens) (UniProt P33261); test: Cytochrome P450 Family 2 Subfamily C Member 19 (CYP2C19) small molecule antagonists: luciferase reporter qHTS assay (AID 1671197); settings: P450-Glo CYP2C19 enzyme, luciferin luminescence, 1 h; also: potency is read from the fitted curve at half-maximal effect; nearly all actives have a fitted effect of over 65% in size
Outline: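 P450-Glo CYP2C19 system: enzyme-substrate mix with compound 10 min at room temperature, then NADPH regeneration solution, 1 h at 37C. Proluciferin-to-luciferin conversion detected by luminescence after 20 min with detection reagent; ketoconazole as positive control.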

Cc1ccc([N+](=O)[O-])c([N+](=O)[O-])c1
inconclusive: Potency [1] 70 µM | activity change, negative = inhibition ([2]; at 58.5 µM (top of the series)) -45.5% | activity change, negative = inhibition ([2]; at 78.9 µM (top of the series)) -18.8% | Potency [3] 70 µM | Potency [4] 70 µM | Potency [5] 70 µM | Potency [6] 70 µM | Potency (Aromatase (Homo sapiens)) 70 µM | Potency [7] 70 µM | activity change, negative = cytotoxicity [8] 30.7% | Potency [9] 77 µM | Potency [10] 70 µM | Potency [11] 70 µM | Potency [12] 64.6 µM and 89.4 µM | Potency [13] 70 µM | Potency [14] 70 µM | Potency [15] 115 µM | Potency [16] 130 µM | Potency [17] 70 µM | Potency [18] 17.7 µM and 6.92 µM | Potency [19] 17.7 µM and 6.92 µM | Potency [20] 70 µM | Potency [21] 70 µM | Potency [22] 70 µM | Potency [23] 70 µM | activation [23] 8.38% | Potency [24] 70.8 µM | Potency [25] 70 µM | Potency [26] 70 µM | Potency [27] 30.6 µM | Potency [28] 63.3 µM | Potency [29] 89.4 µM
